# Data from article PMC8384837.
# Where a chain is given by its changes, count along the chain named. Some of the results follow. For part of these data: At the low end of the ranking, values are background and their order means little.
# Experiments:
# Details in all cases: yeast three-hybrid, YBZ-1, SC-Leu-His + 0.5 mM 3-AT, 4 days
# [1] = biological target: T1, PUM1 PUF domain R4-CCM N971C + H972C + Q975M (UniProt Q14671)
# T1 sequence: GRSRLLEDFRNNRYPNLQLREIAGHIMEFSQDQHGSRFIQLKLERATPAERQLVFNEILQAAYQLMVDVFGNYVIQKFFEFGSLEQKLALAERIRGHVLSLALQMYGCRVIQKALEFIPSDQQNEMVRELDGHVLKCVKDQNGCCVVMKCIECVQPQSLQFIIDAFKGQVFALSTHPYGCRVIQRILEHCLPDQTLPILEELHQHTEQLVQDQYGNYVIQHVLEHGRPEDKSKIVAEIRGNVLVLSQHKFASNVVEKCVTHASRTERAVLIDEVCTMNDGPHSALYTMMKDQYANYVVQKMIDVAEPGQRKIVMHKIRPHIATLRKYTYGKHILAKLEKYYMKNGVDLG
# [2] = biological target: T2, PUM1 PUF domain R4-CFP N971C + H972F + Q975P (UniProt Q14671)
# T2 sequence: T1 sequence with C145F, M148P
# [3] = biological target: T3, PUM1 PUF domain R4-CGC N971C + H972G + Q975C (UniProt Q14671)
# T3 sequence: T1 sequence with C145G, M148C
# [4] = biological target: T4, PUM1 PUF domain R4-CMC N971C + H972M + Q975C (UniProt Q14671)
# T4 sequence: T1 sequence with C145M, M148C
# [5] = biological target: T5, PUM1 PUF domain R4-CMG N971C + H972M + Q975G (UniProt Q14671)
# T5 sequence: T1 sequence with C145M, M148G
# [6] = biological target: T6, PUM1 PUF domain R4-CMS N971C + H972M + Q975S (Homo sapiens) (UniProt Q14671)
# T6 sequence: T1 sequence with C145M, M148S
# [7] = biological target: T7, PUM1 PUF domain R4-CMV N971C + H972M + Q975V (Homo sapiens) (UniProt Q14671)
# T7 sequence: T1 sequence with C145M, M148V
# [8] = biological target: T8, PUM1 PUF domain R4-CNC N971C + H972N + Q975C (UniProt Q14671)
# T8 sequence: T1 sequence with C145N, M148C
# [9] = biological target: T9, PUM1 PUF domain R4-CNG N971C + H972N + Q975G (UniProt Q14671)
# T9 sequence: T1 sequence with C145N, M148G
# [10] = biological target: T10, PUM1 PUF domain R4-CNS N971C + H972N + Q975S (Homo sapiens) (UniProt Q14671)
# T10 sequence: T1 sequence with C145N, M148S
# [11] = biological target: T11, PUM1 PUF domain R4-CNV N971C + H972N + Q975V (UniProt Q14671)
# T11 sequence: T1 sequence with C145N, M148V
# [12] = biological target: T12, PUM1 PUF domain R4-CPG N971C + H972P + Q975G (UniProt Q14671)
# T12 sequence: T1 sequence with C145P, M148G
# [13] = biological target: T13, PUM1 PUF domain R4-CPL N971C + H972P + Q975L (UniProt Q14671)
# T13 sequence: T1 sequence with C145P, M148L
# [14] = biological target: T14, PUM1 PUF domain R4-CPT N971C + H972P + Q975T (Homo sapiens) (UniProt Q14671)
# T14 sequence: T1 sequence with C145P, M148T
# [15] = biological target: T15, PUM1 PUF domain R4-CPV N971C + H972P + Q975V (UniProt Q14671)
# T15 sequence: T1 sequence with C145P, M148V
# [16] = biological target: T16, PUM1 PUF domain R4-CRA N971C + H972R + Q975A (UniProt Q14671)
# T16 sequence: T1 sequence with C145R, M148A
# [17] = biological target: T17, PUM1 PUF domain R4-CRG N971C + H972R + Q975G (Homo sapiens) (UniProt Q14671)
# T17 sequence: T1 sequence with C145R, M148G
# [18] = biological target: T18, PUM1 PUF domain R4-CRL N971C + H972R + Q975L (Homo sapiens) (UniProt Q14671)
# T18 sequence: T1 sequence with C145R, M148L
# [19] = biological target: T19, PUM1 PUF domain R4-CRR N971C + H972R + Q975R (Homo sapiens) (UniProt Q14671)
# T19 sequence: T1 sequence with C145R, M148R
# [20] = biological target: T20, PUM1 PUF domain R4-CRS N971C + H972R + Q975S (UniProt Q14671)
# T20 sequence: T1 sequence with C145R, M148S
# [21] = biological target: T21, PUM1 PUF domain R4-CRV N971C + H972R + Q975V (Homo sapiens) (UniProt Q14671)
# T21 sequence: T1 sequence with C145R, M148V
# [22] = biological target: T22, PUM1 PUF domain R4-CYP N971C + H972Y + Q975P (UniProt Q14671)
# T22 sequence: T1 sequence with C145Y, M148P
# [23] = biological target: T23, PUM1 PUF domain R4-DFA N971D + H972F + Q975A (UniProt Q14671)
# T23 sequence: T1 sequence with C144D, C145F, M148A
# [24] = biological target: T24, PUM1 PUF domain R4-DFC N971D + H972F + Q975C (UniProt Q14671)
# T24 sequence: T1 sequence with C144D, C145F, M148C
# [25] = biological target: T25, PUM1 PUF domain R4-DFG N971D + H972F + Q975G (UniProt Q14671)
# T25 sequence: T1 sequence with C144D, C145F, M148G
# [26] = biological target: T26, PUM1 PUF domain R4-DFI N971D + H972F + Q975I (UniProt Q14671)
# T26 sequence: T1 sequence with C144D, C145F, M148I
# [27] = biological target: T27, PUM1 PUF domain R4-DFL N971D + H972F + Q975L (UniProt Q14671)
# T27 sequence: T1 sequence with C144D, C145F, M148L
# [28] = biological target: T28, PUM1 PUF domain R4-DFM N971D + H972F + Q975M (UniProt Q14671)
# T28 sequence: T1 sequence with C144D, C145F
# [29] = biological target: T29, PUM1 PUF domain R4-DFR N971D + H972F + Q975R (UniProt Q14671)
# T29 sequence: T1 sequence with C144D, C145F, M148R
# [30] = biological target: T30, PUM1 PUF domain R4-DFS N971D + H972F + Q975S (UniProt Q14671)
# T30 sequence: T1 sequence with C144D, C145F, M148S
sequence,measurement,setting,value
GGCUAGAACUAGUGGAUCCCCCGGCGCCCGGCGGCUCGAGCCCGGGUAAGUGUAGAUAGUCUGCAUGCCGCCGGGCGCCAUGCCUGCAGGUCGACUCUAGAAAACAUG,binding signal (log2 enrichment (interaction score)),[1],< -6.1
same,binding signal (log2 enrichment (interaction score)),[2],-3.33
same,binding signal (log2 enrichment (interaction score)),[3],< -7.03
same,binding signal (log2 enrichment (interaction score)),[4],< -6.29
same,binding signal (log2 enrichment (interaction score)),[5],< -6.66
same,binding signal (log2 enrichment (interaction score)),[6],-1.17
same,binding signal (log2 enrichment (interaction score)),[7],-4.49
same,binding signal (log2 enrichment (interaction score)),[8],< -5.83
same,binding signal (log2 enrichment (interaction score)),[9],< -6.13
same,binding signal (log2 enrichment (interaction score)),[10],-0.21
same,binding signal (log2 enrichment (interaction score)),[11],< -6.9
same,binding signal (log2 enrichment (interaction score)),[12],< -5.62
same,binding signal (log2 enrichment (interaction score)),[13],< -7.27
same,binding signal (log2 enrichment (interaction score)),[14],-1.17
same,binding signal (log2 enrichment (interaction score)),[15],< -7.24
same,binding signal (log2 enrichment (interaction score)),[16],< -5.27
same,binding signal (log2 enrichment (interaction score)),[17],-4.23
same,binding signal (log2 enrichment (interaction score)),[18],-4.91
same,binding signal (log2 enrichment (interaction score)),[19],-6.39
same,binding signal (log2 enrichment (interaction score)),[20],< -5.87
same,binding signal (log2 enrichment (interaction score)),[21],-2.5
same,binding signal (log2 enrichment (interaction score)),[22],< -4.71
same,binding signal (log2 enrichment (interaction score)),[23],< -5.83
same,binding signal (log2 enrichment (interaction score)),[24],< -5.94
same,binding signal (log2 enrichment (interaction score)),[25],< -6.03
same,binding signal (log2 enrichment (interaction score)),[26],< -5.94
same,binding signal (log2 enrichment (interaction score)),[27],< -7.74
same,binding signal (log2 enrichment (interaction score)),[28],< -6.35
same,binding signal (log2 enrichment (interaction score)),[29],< -6.79
same,binding signal (log2 enrichment (interaction score)),[30],< -7.5

# In a second layout: entries from further up.
sequence	measurement	setting	value
GGCUAGAACUAGUGGAUCCCCCGGCGCCCGGCGGCUCGAGCCCGGGUAAGUGUAGAUAGUCUGCAUGCCGCCGGGCGCCAUGCCUGCAGGUCGACUCUAGAAAACAUG	binding signal (log2 enrichment (interaction score))	[21]	-2.5
same	binding signal (log2 enrichment (interaction score))	[26]	< -5.94
